Structures can show the parent of a compound that is named as a salt. Some of the results follow. Most entries show no effect beyond the scatter of the controls.
Tested on: hPSC-derived cortical neurons (WA09)
Assay: total neurite length per nucleus (MAP2) z-score; higher = more neurite growth
Settings: 5 µM; treatment: days 7-14 after plating, readout day 21

Row | SMILES | total neurite length per nucleus (z-score)
1 | C[C@@H](O[C@H]1OCCN(Cc2nn(P(=O)(O)O)c(=O)[nH]2)[C@H]1c1ccc(F)cc1)c1cc(C(F)(F)F)cc(C(F)(F)F)c1 [Fosaprepitant dimeglumine salt] | -1.23
2 | CCOC(=O)CC(=O)N1CCSC1COc1ccccc1OC (centres undefined) [Moguisteine] | -0.821
3 | CCOP(=O)(OCC)C(=Cc1cc(C(C)(C)C)c(O)c(C(C)(C)C)c1)P(=O)(OCC)OCC | 0.297
4 | CC(C)NCC(O)COc1ccc(CCOCC2CC2)cc1 (centres undefined) [Betaxolol HCl] | 0.802
5 | O=C(Nc1ccncc1)c1cc([N+](=O)[O-])ccc1Cl | 0.857
6 | N[C@H]1C[C@@H]1c1ccc(-c2cccc(O)c2)cc1 | 1.05
7 | Clc1ccccc1C(c1ccccc1)(c1ccccc1)n1ccnc1 [Clotrimazole] | -0.0312
8 | Cc1cn(-c2cc(NC(=O)c3ccc(C)c(Nc4nccc(-c5cccnc5)n4)c3)cc(C(F)(F)F)c2)cn1 [Nilotinib (AMN-107)] | 1.15
9 | CC(C)NC[C@@H](O)COc1ccc(CC(N)=O)cc1 [(R)-(+)-Atenolol HCl] | 0.653
10 | OCC(O)CN1CCN(c2ccccc2)CC1 (centres undefined) [Dropropizine] | 0.585
11 | Cc1c(Cn2c(C)nc3c(C(=O)O)cc(N4CCOCC4)cc32)cccc1C(F)(F)F | 1.08
12 | COc1ccc2c(c1)c(CC(=O)N1CCOCC1)c(C)n2C(=O)c1ccc(Cl)cc1 | 0.686
13 | Cc1ccc(Cl)cc1N(CC(=O)Nc1c(F)cccc1F)S(C)(=O)=O | -0.589
14 | CC(C)(C)c1cc(/C=C(\C#N)C(N)=S)cc(C(C)(C)C)c1O [Tyrphostin AG 879] | 0.677

Two neighbouring entries already listed:
Row | SMILES | total neurite length per nucleus (z-score)
10 | OCC(O)CN1CCN(c2ccccc2)CC1 (centres undefined) [Dropropizine] | 0.585
11 | Cc1c(Cn2c(C)nc3c(C(=O)O)cc(N4CCOCC4)cc32)cccc1C(F)(F)F | 1.08

Source: the supplement of paper PMC11348887
